Legend:
MCF-7 = assay: MTT cytotoxicity assay, MCF-7 breast cancer cell line; format: cell-based; details: Homo sapiens, MCF7; MCF-7, MTT; read-out: MCF-7 IC50 (µM) ± SD
Source text: (§1) To evaluate the antitumor activity of the newly synthesized sulfonamide carbonic anhydrase inhibitors (compounds M3, M4, and M5), we employed cell line assays using 3-(4,5-dimethylthiazol-2-yl)-2,5-diphenyltetrazolium (MTT). Two cell types were utilized in this study: MCF-7, a breast cancer cell line, to assess the effects of the compounds on cancer cells, and MCF10A, a normal breast epithelial cell line, to evaluate the effects on non-cancerous cells. These cell lines were procured from the Iranian National Cell Bank at the Pasteur Institute. MCF-7 cells were cultured in RPMI-1640 medium, while MCF10A cells were cultured in DMEM: F12 medium. Both media were supplemented with 10% fetal bovine serum (FBS), followed by the addition of antibiotics (100 µg/ml streptomycin and 100 units/ml penicillin). The cells were maintained in a humidified atmosphere at 37°C with 5% carbon dioxide. For cell passaging, a trypsin/EDTA solution (Gibco) and phosphate-buffered saline (PBS) were utilized. Cell viability was assessed using MTT from Sigma-Aldrich. Each type of cell (MCF-7 and MCF10A) was cultured separately in 96-well plates (1.4 × 10^4 cells per well with 200 µl of fresh medium) after a full day had passed (temperature of 37°C in a 5% CO2 environment). […] An ELISA reader (Model Wave xs2, BioTek) was used to measure cell vitality by absorption at 570 nm and calculate the IC50 values.

MCF10A = assay: MTT cytotoxicity assay, MCF10A normal breast epithelial cell line; format: cell-based; details: Homo sapiens, MCF-10A, MCF10A normal cells, read-out: MCF10A IC50 (µM) ± SD
Source text: as §1

CC(=O)Nc1nnc(S(N)(=O)=O)s1 [AZZ, acetazolamide, reference compound]
IC50 (MCF-7): 67.5 ± 1.8 µM | IC50 (MCF10A): 53.9 ± 5.64 µM
